Results reported in US9779901B2, “High temperature material compositions for high temperature thermal cutoff devices” (Therm-O-Disc, Incorporated, priority 2008, dated 2017).

Assay: Continuous exposure of C5 epoxy sealed TCO devices to 247° C. (pellet retention, pellet height, resistance)
Conditions: for retention of the thermal pellet compound by the C5 epoxy seal: pellet in sealed TCO housing; for initial pellet height: before exposure to 247° C.; for time until resistance greater than 200 kOhm (actuation): 9 out of 10 HTTCO samples for triptycene
[1] = continuous exposure to 247° C., C5 seal

Compound	retention of the thermal pellet compound by the C5 epoxy seal (continuous exposure to 247° C.)	initial pellet height	pellet height at Day 1 (continuous exposure to 247° C., C5 seal, Day 1)	time until resistance greater than 200 kOhm (actuation) [1]	pellet height retained (continuous exposure to 247° C., C5 seal, for at least 13 weeks)
Nc1cccc2c1C(=O)c1ccccc1C2=O [1-aminoanthraquinone]	even greater retention	–	–	–	–
OCC(CO)(CO)CO [pentaerythritol, 2,2-Bis(hydroxymethyl)-1,3-propanediol, reference compound]	not retained	101 thousandths of an inch	0.00 thousandths of an inch	almost immediately	–
c1ccc2c(c1)C1c3ccccc3C2c2ccccc21 [triptycene, 9,10-dihydro-9,10-o-benzeno-9,10-dihydroanthracene]	retained	about 98 thousandths of an inch	–	over 2,100 hours	at least 80 thousandths of an inch
